# Results as given in patent US8450454B2, “Compositions for inhibiting ABAD/ABeta protein interaction” (The Trustees of Columbia University in the City of New York, priority 2004, dated 2013).
# At least one peptide structure holds a part that was inferred or is arguable (an end, a ring closure or a residue). Ends that are not written are not given here.
# Experiments:
# cultured neurons = assay: Intracellular generation of ROS (DCFDA fluorescent probe) in cultured neurons; type: cell-based, mouse
# primary cortical neurons = assay: Cytochrome c release in cultured primary cortical neurons; type: cell-based, mouse
sequence,measurement,setting,value
VDLVRQFDELTHTQGKKLNYTKSAVAIGA [ABAD-RP],Aβ-induced ROS generation (DCFDA fluorescence),"cultured neurons; Aβ-exposed neurons from nonTg and Tg ABAD animals, peptide pre-treatment 10 μM 60 min",no effect
same,spontaneous generation of ROS,"cultured neurons; neurons from Tg mAPP/ABAD mice, peptide pre-treatment",not
same,spontaneous loss of cytochrome c from mitochondrial/membrane fraction,"primary cortical neurons; neurons from Tg mAPP/ABAD mice, Tat-linked peptide pre-treatment",not
same,Aβ-induced cytochrome c release,"primary cortical neurons; wild-type (nonTg) cortical neurons, Tat-linked peptide 10 μM pre-incubation 60 min, Aβ(1-42) 1 μM, 24 h",not
